Data reported in the supplement of paper PMC10689618.
Structures can show the parent of a compound that is named as a salt. This is one part of the list. Single values are uncertain, as repeats are few or missing.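 Labelled rat cortical synaptosomes were engulfed by primary human fetal astrocytes. Engulfment equaled a red/green ratio, corrected for calcein live-cell signal and normalized to the plate median. Compounds were toxic when calcein dropped over 30%, and reduced phagocytosis when below 70% of the median above 5 µM.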

Assays:
Details in all cases: 24 h
[1] = test system: Human fetal astrocytes; experiment: loss of total cells relative to no-compound high-control median (toxicity); higher = more toxic (fewer cells)
[2] = test system: Human fetal astrocytes; experiment: as above; remark: listed apart in the source
[3] = test system: Human fetal astrocytes; experiment: synaptosome phagocytosis (pHrodo/calcein intensity ratio) relative to plate median of data wells; higher = more phagocytosis
[4] = test system: Human fetal astrocytes; experiment: as above; remark: listed apart in the source

| SMILES | loss of total cells ([1]; 1.39 µM) | loss of total cells ([1]; 2.78 µM) | loss of total cells ([1]; 5.56 µM) | loss of total cells ([1]; 11.11 µM) | loss of total cells ([1]; 22.22 µM) | loss of total cells ([2]; 1.39 µM) | loss of total cells ([2]; 2.78 µM) | loss of total cells ([2]; 5.56 µM) | loss of total cells ([2]; 11.11 µM) | loss of total cells ([2]; 22.22 µM) | synaptosome phagocytosis ([3]; 1.39 µM) | synaptosome phagocytosis ([3]; 2.78 µM) | synaptosome phagocytosis ([3]; 5.56 µM) | synaptosome phagocytosis ([3]; 11.11 µM) | synaptosome phagocytosis ([3]; 22.22 µM) | synaptosome phagocytosis ([4]; 1.39 µM) | synaptosome phagocytosis ([4]; 2.78 µM) | synaptosome phagocytosis ([4]; 5.56 µM) | synaptosome phagocytosis ([4]; 11.11 µM) | synaptosome phagocytosis ([4]; 22.22 µM) |
| --- | --- | --- | --- | --- | --- | --- | --- | --- | --- | --- | --- | --- | --- | --- | --- | --- | --- | --- | --- | --- |
| Cc1nccc2c1[nH]c1ccccc12 [Harmane] | -4.6% | -12% | 9.1% | -0.4% | 2.4% | -10.7% | -17.7% | 8.8% | 16.9% | 1.5% | 122% | 87.1% | 98.2% | 107% | 111% | 117% | 151% | 102% | 112% | 106% |
| COc1ccc(C(=O)N2CCCC2=O)cc1 [Aniracetam] | -8.1% | -17.1% | -27.2% | -31.8% | 10.2% | 5.4% | 12% | -16% | 32.3% | 4.8% | 63.9% | 103% | 51.7% | 128% | 70.4% | 122% | 104% | 133% | 85.8% | 120% |
| CN1[C@@H]2CC[C@H]1C[C@@H](OC(=O)[C@H](CO)c1ccccc1)C2 [L-Hyoscyamine] | -16.3% | -23.1% | -28% | -1.3% | 1.6% | 3.3% | -3.4% | 8.7% | 5.5% | 0.6% | 121% | 115% | 98.9% | 102% | 93.6% | 94.1% | 124% | 95.8% | 90.6% | 112% |
| C[C@@H]1O[C@@H](O[C@H]2CC[C@]3(C=O)[C@H]4CC[C@]5(C)[C@@H](C6=CC(=O)OC6)CC[C@]5(O)[C@@H]4CC[C@]3(O)C2)[C@H](O)[C@H](O)[C@H]1O |  |  |  |  |  |  |  |  |  |  | 58.3% | 38.4% | 41.8% | 32.8% | 15% |  |  |  |  |  |
| O=C(O)CC[N+](=O)[O-] [3-Nitropropionic acid] | 7.1% | 6.8% | -4.2% | -1% | 22.4% | -0.8% | 15.5% | 21.2% | 6.8% | 17% | 98.2% | 110% | 144% | 84.6% | 102% | 97.4% | 110% | 87% | 122% | 115% |
| CC[C@@H](CO)NC(=O)[C@@H]1C=C2c3cccc4c3c(cn4C)C[C@H]2N(C)C1 [Methysergide maleate] | 8.1% | -10.4% | 3.3% | -4.8% | 15.9% | -37.9% | -23.8% | -7.5% | 37.7% | 7.8% | 108% | 102% | 92% | 124% | 106% | 98.4% | 120% | 88.1% | 92.4% | 99.5% |
| CN1CCN(C(=O)OC2c3nccnc3C(=O)N2c2ccc(Cl)cn2)CC1 (stereo not given) [Zopiclone] | -19.6% | 2.7% | 10.7% | -2.7% | -9.9% | 11.2% | 3.2% | 17.4% | -13.8% | 36.4% | 147% | 139% | 106% | 92.2% | 121% | 110% | 90.2% | 89.4% | 80.9% | 108% |
| C=C(C)[C@H]1Cc2c(ccc3c2O[C@@H]2COc4cc(OC)c(OC)cc4[C@@H]2C3=O)O1 [Rotenone] | 2.2% | 9.9% | 18% | 34.9% | 23.9% | 13.4% | 27.9% | 5.3% | 32.3% | 33.7% | 52% | 85% | 63% | 81.5% | 56.4% | 72.5% | 89.7% | 70.4% | 87.6% | 68.5% |
| OC1CCCCC1N1CCC(c2ccccc2)CC1 (racemic) [(±)-Vesamicol hydrochloride] | -28.3% | -20.1% | -1.7% | -26.4% | -26.3% | -17.8% | 6.6% | -3.8% | 47.1% | 7.8% | 85.6% | 50.6% | 102% | 137% | 101% | 92.1% | 104% | 91% | 99.8% | 120% |
| O=c1c2ccccc2[se]n1-c1ccccc1 [Ebselen] | 10.5% | 9.4% | 10.7% | -1.3% | 38.4% | 1.8% | 17.7% | 19.6% | -4.6% | 20.5% | 67.7% | 72.3% | 110% | 101% | 120% | 129% | 104% | 113% | 102% | 59.5% |
| C1CCc2nnnn2CC1 [Pentylenetetrazole] | -20.4% | 18.6% | -8.9% | 7.6% | 1.9% | 27.9% | 8.6% | -16% | 38.7% | 22.6% | 121% | 93% | 77.9% | 153% | 114% | 98.7% | 91.4% | 110% | 104% | 108% |
| C[N+]1(C)[C@@H]2CC[C@H]1C[C@@H](OC(=O)C(CO)c1ccccc1)C2 (stereo not given in full) [Atropine methyl bromide] | -17.2% | -11.1% | -1.4% | -10.3% | -9.4% | 28.2% | -48.4% | -11.2% | 8.9% | 4.7% | 167% | 72.2% | 102% | 78% | 103% | 96.9% | 98.5% | 108% | 80.4% | 110% |
| CC(C)(C)NCC(O)c1ccccc1Cl (stereo not given) [Tulobuterol hydrochloride] | -30.7% | -21.3% | -9% | 4.2% | -22.2% | 22.7% | 14.1% | 21% | 16.3% | 16.7% | 109% | 109% | 93.3% | 90.8% | 112% | 73.3% | 72% | 101% | 91.7% | 77.9% |

3 entries from above in a different format.
SMILES	loss of total cells ([1]; 1.39 µM)	loss of total cells ([1]; 2.78 µM)	loss of total cells ([1]; 5.56 µM)	loss of total cells ([1]; 11.11 µM)	loss of total cells ([1]; 22.22 µM)	loss of total cells ([2]; 1.39 µM)	loss of total cells ([2]; 2.78 µM)	loss of total cells ([2]; 5.56 µM)	loss of total cells ([2]; 11.11 µM)	loss of total cells ([2]; 22.22 µM)	synaptosome phagocytosis ([3]; 1.39 µM)	synaptosome phagocytosis ([3]; 2.78 µM)	synaptosome phagocytosis ([3]; 5.56 µM)	synaptosome phagocytosis ([3]; 11.11 µM)	synaptosome phagocytosis ([3]; 22.22 µM)	synaptosome phagocytosis ([4]; 1.39 µM)	synaptosome phagocytosis ([4]; 2.78 µM)	synaptosome phagocytosis ([4]; 5.56 µM)	synaptosome phagocytosis ([4]; 11.11 µM)	synaptosome phagocytosis ([4]; 22.22 µM)
OC1CCCCC1N1CCC(c2ccccc2)CC1 (racemic) [(±)-Vesamicol hydrochloride]	-28.3%	-20.1%	-1.7%	-26.4%	-26.3%	-17.8%	6.6%	-3.8%	47.1%	7.8%	85.6%	50.6%	102%	137%	101%	92.1%	104%	91%	99.8%	120%
O=c1c2ccccc2[se]n1-c1ccccc1 [Ebselen]	10.5%	9.4%	10.7%	-1.3%	38.4%	1.8%	17.7%	19.6%	-4.6%	20.5%	67.7%	72.3%	110%	101%	120%	129%	104%	113%	102%	59.5%
C1CCc2nnnn2CC1 [Pentylenetetrazole]	-20.4%	18.6%	-8.9%	7.6%	1.9%	27.9%	8.6%	-16%	38.7%	22.6%	121%	93%	77.9%	153%	114%	98.7%	91.4%	110%	104%	108%
